# Assay results as given in the supplement of paper PMC8728848.
# This is one part of the list.
# B1: PX14375A-pdi-503-28-503 (Parabacteroides distasonis) (protein)
# chain: PLGSPEAGDISEERQAFLRLTAVYSVMKDFRYTWSMQCFGDVLSNDATYSGSSNDAQTFTLLENYQYQADHTEILNKYRYSYQCINKANLFIRDMEMADDALFSKYDKEQMIGEAKFIRAYTYFELVKTFGGVPCYTGVLDLDHERLGRASVEEIYSVIEQDLNDAVSVLPKKSEVANYESSYAGRITKGAAIAMQTRIYLYEKKYDEVKKAFEKFQNECGGEYSLVAPEDYTWQFSLDGEHCSSSILEVNMYNSSTQSSYNVNNGNRHVLMSMPRNMTIGFGCAQPTQALADAYDAEGDVIRKKTTLLSTEEAIEIETAAKGDVAPVTDDRTGWYNRKLYLAPGQREENRGNNQPTNLRLIRLAEVYLNYAEACYFSGDIANAQKYLNEVRSHVNLAPKNHTGSQLFEDIMNERHLEFGMEGFRFFDVVRVGWGEKVFNGTKKAEFGAKTPFSAGAEVLPIPQTEIDISDGLITN
# Key:
# Assay in all cases: glycan array binding signal (z-score within array); higher = stronger binding
# Conditions in all cases: glycan notation: IUPAC condensed, linker removed
# [1] = molecular target: Gal(a1-3)Gal(b1-4)GlcNAc(b1-2)Man
# Summary of the method: (§1)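 The binding signal is a Z-score computed within each array. Data were drawn from 3228 arrays in the Consortium for Functional Glycomics database, restricted to those with a known protein sequence. Scores were averaged over arrays of the same protein sequence at different concentrations or buffers, and over linkers, and negative values can be taken as non-binding.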
# [2] = molecular target: Gal(a1-3)Gal(b1-4)GlcNAc(b1-2)Man(a1-3)[Gal(a1-3)Gal(b1-4)GlcNAc(b1-2)Man(a1-6)]Man(b1-4)GlcNAc(b1-4)GlcNAc
# Summary of the method: as §1
# [3] = molecular target: Gal(a1-3)Gal(b1-4)GlcNAc(b1-3)GalNAc
# Summary of the method: as §1
# [4] = molecular target: Gal(a1-3)Gal(b1-4)GlcNAc(b1-6)GalNAc
# Summary of the method: as §1
# [5] = molecular target: Gal(a1-3)Gal(b1-4)[Fuc(a1-3)]GlcNAc
# Summary of the method: as §1
# [6] = molecular target: Gal(a1-3)Gal(b1-4)[Fuc(a1-3)]GlcNAc(b1-2)Man(a1-3)[Gal(a1-3)Gal(b1-4)[Fuc(a1-3)]GlcNAc(b1-2)Man(a1-6)]Man(b1-4)GlcNAc(b1-4)GlcNAc
# Summary of the method: as §1
# [7] = molecular target: Gal(a1-3)GalNAc
# Summary of the method: as §1
# [8] = molecular target: Gal(a1-3)[Gal(a1-4)]Gal(b1-4)GlcNAc
# Summary of the method: as §1
# [9] = molecular target: Gal(a1-4)Gal(b1-3)GlcNAc(b1-2)Man(a1-3)[Gal(a1-4)Gal(b1-3)GlcNAc(b1-2)Man(a1-6)]Man(b1-4)GlcNAc(b1-4)GlcNAc
# Summary of the method: as §1
# [10] = molecular target: Gal(a1-4)Gal(b1-4)Glc
# Summary of the method: as §1
# [11] = molecular target: Gal(a1-4)Gal(b1-4)GlcNAc
# Summary of the method: as §1
# [12] = molecular target: Gal(a1-4)Gal(b1-4)GlcNAc(b1-2)Man(a1-3)[Gal(a1-4)Gal(b1-4)GlcNAc(b1-2)Man(a1-6)]Man(b1-4)GlcNAc(b1-4)GlcNAc
# Summary of the method: as §1
# [13] = molecular target: Gal(a1-4)Gal(b1-4)GlcNAc(b1-3)Gal(b1-4)Glc
# Summary of the method: as §1
# [14] = molecular target: Gal(a1-4)GlcNAc
# Summary of the method: as §1
# [15] = molecular target: Gal(a1-6)Glc
# Summary of the method: as §1
# [16] = molecular target: Gal(b1-2)Gal
# Summary of the method: as §1
# [17] = molecular target: Gal(b1-3)Gal
# Summary of the method: as §1
# [18] = molecular target: Gal(b1-3)Gal(b1-4)GlcNAc
# Summary of the method: as §1
# [19] = molecular target: Gal(b1-3)GalNAc
# Summary of the method: as §1
# [20] = molecular target: Gal(b1-3)GalNAc(a1-3)[Fuc(a1-2)]Gal(b1-4)Glc
# Summary of the method: as §1
# [21] = molecular target: Gal(b1-3)GalNAc(a1-3)[Fuc(a1-2)]Gal(b1-4)GlcNAc
# Summary of the method: as §1
# [22] = molecular target: Gal(b1-3)GalNAc(b1-3)Gal
# Summary of the method: as §1
# [23] = molecular target: Gal(b1-3)GalNAc(b1-3)Gal(a1-4)Gal(b1-4)Glc
# Summary of the method: as §1
# [24] = molecular target: Gal(b1-3)GalNAc(b1-4)Gal(b1-4)Glc
# Summary of the method: as §1
# [25] = molecular target: Gal(b1-3)GalNAc(b1-4)[Neu5Ac(a2-3)]Gal(b1-4)Glc
# Summary of the method: as §1
# [26] = molecular target: Gal(b1-3)GlcNAc
# Summary of the method: as §1
# [27] = molecular target: Gal(b1-3)GlcNAc(a1-3)Gal(b1-4)GlcNAc
# Summary of the method: as §1
# [28] = molecular target: Gal(b1-3)GlcNAc(a1-6)Gal(b1-4)GlcNAc
# Summary of the method: as §1
# [29] = molecular target: Gal(b1-3)GlcNAc(b1-2)Man
# Summary of the method: as §1
# [30] = molecular target: Gal(b1-3)GlcNAc(b1-2)Man(a1-3)[Gal(b1-3)GlcNAc(b1-2)Man(a1-6)]Man(b1-4)GlcNAc(b1-4)GlcNAc
# Summary of the method: as §1
# [31] = molecular target: Gal(b1-3)GlcNAc(b1-2)Man(a1-3)[Gal(b1-3)GlcNAc(b1-2)Man(a1-6)]Man(b1-4)GlcNAc(b1-4)[Fuc(a1-6)]GlcNAc
# Summary of the method: as §1
# [32] = molecular target: Gal(b1-3)GlcNAc(b1-2)Man(a1-3)[GlcNAc(b1-4)][Gal(b1-3)GlcNAc(b1-2)Man(a1-6)]Man(b1-4)GlcNAc(b1-4)GlcNAc
# Summary of the method: as §1
# [33] = molecular target: Gal(b1-3)GlcNAc(b1-2)[Gal(b1-3)GlcNAc(b1-6)]Man(a1-6)[Gal(b1-3)GlcNAc(b1-2)Man(a1-3)]Man(b1-4)GlcNAc(b1-4)GlcNAc
# Summary of the method: as §1
# [34] = molecular target: Gal(b1-3)GlcNAc(b1-3)Gal(b1-3)GlcNAc
# Summary of the method: as §1
# [35] = molecular target: Gal(b1-3)GlcNAc(b1-3)Gal(b1-4)Glc
# Summary of the method: as §1
# [36] = molecular target: Gal(b1-3)GlcNAc(b1-3)Gal(b1-4)GlcNAc
# Summary of the method: as §1
# [37] = molecular target: Gal(b1-3)GlcNAc(b1-3)Gal(b1-4)GlcNAc(b1-2)Man(a1-3)[Gal(b1-3)GlcNAc(b1-3)Gal(b1-4)GlcNAc(b1-2)Man(a1-6)]Man(b1-4)GlcNAc(b1-4)GlcNAc
# Summary of the method: as §1
binder,measurement,setting,value
B1,glycan array binding signal (z-score),[1],-0.094
same,glycan array binding signal (z-score),[2],-0.407
same,glycan array binding signal (z-score),[3],-0.607
same,glycan array binding signal (z-score),[4],0.08
same,glycan array binding signal (z-score),[5],-0.426
same,glycan array binding signal (z-score),[6],0.144
same,glycan array binding signal (z-score),[7],-0.34
same,glycan array binding signal (z-score),[8],2.05
same,glycan array binding signal (z-score),[9],-0.248
same,glycan array binding signal (z-score),[10],0.305
same,glycan array binding signal (z-score),[11],0.051
same,glycan array binding signal (z-score),[12],0.496
same,glycan array binding signal (z-score),[13],-0.742
same,glycan array binding signal (z-score),[14],-0.567
same,glycan array binding signal (z-score),[15],0.257
same,glycan array binding signal (z-score),[16],0.409
same,glycan array binding signal (z-score),[17],-0.757
same,glycan array binding signal (z-score),[18],-0.2
same,glycan array binding signal (z-score),[19],-0.065
same,glycan array binding signal (z-score),[20],-0.427
same,glycan array binding signal (z-score),[21],0.218
same,glycan array binding signal (z-score),[22],-0.316
same,glycan array binding signal (z-score),[23],-0.901
same,glycan array binding signal (z-score),[24],-0.745
same,glycan array binding signal (z-score),[25],0.273
same,glycan array binding signal (z-score),[26],-0.179
same,glycan array binding signal (z-score),[27],0.207
same,glycan array binding signal (z-score),[28],0.019
same,glycan array binding signal (z-score),[29],-0.555
same,glycan array binding signal (z-score),[30],0.122
same,glycan array binding signal (z-score),[31],-0.507
same,glycan array binding signal (z-score),[32],0.244
same,glycan array binding signal (z-score),[33],-0.545
same,glycan array binding signal (z-score),[34],0.181
same,glycan array binding signal (z-score),[35],10.3
same,glycan array binding signal (z-score),[36],-0.194
same,glycan array binding signal (z-score),[37],-0.098

# 2 successive entries out of the list so far:
binder,measurement,setting,value
B1,glycan array binding signal (z-score),[32],0.244
same,glycan array binding signal (z-score),[33],-0.545
